Assay results from the supplement of paper PMC7666118.
Some of the results follow.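 The calls were made as follows: active = dose-dependent thermal stabilisation significant by F-test of dose-response against flat model at 10% FDR; inactive = not significant.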

Amino acid sequences for entries named in this document (tags omitted). A change or cut given only in a name is not applied to a line headed by its entry.
UniProt P15882: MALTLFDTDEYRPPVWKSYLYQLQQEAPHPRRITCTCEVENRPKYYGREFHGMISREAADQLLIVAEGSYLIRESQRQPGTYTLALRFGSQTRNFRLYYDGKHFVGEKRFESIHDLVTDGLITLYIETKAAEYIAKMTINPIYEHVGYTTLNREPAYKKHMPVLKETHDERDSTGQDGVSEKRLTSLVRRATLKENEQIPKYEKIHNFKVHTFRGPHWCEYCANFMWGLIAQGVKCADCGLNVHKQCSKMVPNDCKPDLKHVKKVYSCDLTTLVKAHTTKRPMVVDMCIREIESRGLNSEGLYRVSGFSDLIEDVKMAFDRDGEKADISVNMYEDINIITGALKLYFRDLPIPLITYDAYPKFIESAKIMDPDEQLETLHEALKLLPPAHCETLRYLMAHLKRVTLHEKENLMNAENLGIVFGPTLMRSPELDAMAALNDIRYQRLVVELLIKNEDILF
UniProt O15182: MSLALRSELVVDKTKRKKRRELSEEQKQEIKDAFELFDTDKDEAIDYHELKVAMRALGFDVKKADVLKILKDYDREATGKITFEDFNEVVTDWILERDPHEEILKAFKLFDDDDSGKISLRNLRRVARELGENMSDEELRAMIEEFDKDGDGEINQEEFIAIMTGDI
UniProt Q53HC0: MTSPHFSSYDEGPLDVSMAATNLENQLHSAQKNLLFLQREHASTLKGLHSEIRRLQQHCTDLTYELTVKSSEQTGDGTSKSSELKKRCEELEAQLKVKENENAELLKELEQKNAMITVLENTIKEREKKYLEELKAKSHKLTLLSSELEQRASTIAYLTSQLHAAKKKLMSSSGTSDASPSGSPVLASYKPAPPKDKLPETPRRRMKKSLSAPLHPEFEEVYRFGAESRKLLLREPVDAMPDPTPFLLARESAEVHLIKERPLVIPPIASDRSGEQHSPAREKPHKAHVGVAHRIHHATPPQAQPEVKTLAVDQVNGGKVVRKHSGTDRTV
UniProt P50991: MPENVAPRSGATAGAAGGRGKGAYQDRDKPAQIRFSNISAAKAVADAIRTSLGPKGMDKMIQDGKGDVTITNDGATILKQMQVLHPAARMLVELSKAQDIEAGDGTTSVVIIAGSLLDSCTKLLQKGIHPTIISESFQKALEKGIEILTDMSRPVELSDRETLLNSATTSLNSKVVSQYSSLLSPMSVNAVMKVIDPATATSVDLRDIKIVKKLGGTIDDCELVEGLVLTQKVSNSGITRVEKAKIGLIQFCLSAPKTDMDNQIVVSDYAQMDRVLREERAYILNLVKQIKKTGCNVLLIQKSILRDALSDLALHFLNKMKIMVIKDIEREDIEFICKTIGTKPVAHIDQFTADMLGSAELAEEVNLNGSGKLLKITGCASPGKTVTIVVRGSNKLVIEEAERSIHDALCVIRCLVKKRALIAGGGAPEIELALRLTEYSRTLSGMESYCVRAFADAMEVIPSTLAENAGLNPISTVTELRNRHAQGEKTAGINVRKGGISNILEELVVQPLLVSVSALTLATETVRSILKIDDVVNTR
UniProt Q6FI81: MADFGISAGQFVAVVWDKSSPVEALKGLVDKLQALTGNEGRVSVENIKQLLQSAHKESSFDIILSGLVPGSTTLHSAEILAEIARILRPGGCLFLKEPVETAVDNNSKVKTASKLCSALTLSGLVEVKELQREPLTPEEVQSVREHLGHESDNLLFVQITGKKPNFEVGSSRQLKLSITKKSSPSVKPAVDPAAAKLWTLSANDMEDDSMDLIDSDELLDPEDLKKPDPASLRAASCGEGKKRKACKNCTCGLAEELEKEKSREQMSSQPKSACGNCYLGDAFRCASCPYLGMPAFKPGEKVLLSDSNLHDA
UniProt O14578, whole entry: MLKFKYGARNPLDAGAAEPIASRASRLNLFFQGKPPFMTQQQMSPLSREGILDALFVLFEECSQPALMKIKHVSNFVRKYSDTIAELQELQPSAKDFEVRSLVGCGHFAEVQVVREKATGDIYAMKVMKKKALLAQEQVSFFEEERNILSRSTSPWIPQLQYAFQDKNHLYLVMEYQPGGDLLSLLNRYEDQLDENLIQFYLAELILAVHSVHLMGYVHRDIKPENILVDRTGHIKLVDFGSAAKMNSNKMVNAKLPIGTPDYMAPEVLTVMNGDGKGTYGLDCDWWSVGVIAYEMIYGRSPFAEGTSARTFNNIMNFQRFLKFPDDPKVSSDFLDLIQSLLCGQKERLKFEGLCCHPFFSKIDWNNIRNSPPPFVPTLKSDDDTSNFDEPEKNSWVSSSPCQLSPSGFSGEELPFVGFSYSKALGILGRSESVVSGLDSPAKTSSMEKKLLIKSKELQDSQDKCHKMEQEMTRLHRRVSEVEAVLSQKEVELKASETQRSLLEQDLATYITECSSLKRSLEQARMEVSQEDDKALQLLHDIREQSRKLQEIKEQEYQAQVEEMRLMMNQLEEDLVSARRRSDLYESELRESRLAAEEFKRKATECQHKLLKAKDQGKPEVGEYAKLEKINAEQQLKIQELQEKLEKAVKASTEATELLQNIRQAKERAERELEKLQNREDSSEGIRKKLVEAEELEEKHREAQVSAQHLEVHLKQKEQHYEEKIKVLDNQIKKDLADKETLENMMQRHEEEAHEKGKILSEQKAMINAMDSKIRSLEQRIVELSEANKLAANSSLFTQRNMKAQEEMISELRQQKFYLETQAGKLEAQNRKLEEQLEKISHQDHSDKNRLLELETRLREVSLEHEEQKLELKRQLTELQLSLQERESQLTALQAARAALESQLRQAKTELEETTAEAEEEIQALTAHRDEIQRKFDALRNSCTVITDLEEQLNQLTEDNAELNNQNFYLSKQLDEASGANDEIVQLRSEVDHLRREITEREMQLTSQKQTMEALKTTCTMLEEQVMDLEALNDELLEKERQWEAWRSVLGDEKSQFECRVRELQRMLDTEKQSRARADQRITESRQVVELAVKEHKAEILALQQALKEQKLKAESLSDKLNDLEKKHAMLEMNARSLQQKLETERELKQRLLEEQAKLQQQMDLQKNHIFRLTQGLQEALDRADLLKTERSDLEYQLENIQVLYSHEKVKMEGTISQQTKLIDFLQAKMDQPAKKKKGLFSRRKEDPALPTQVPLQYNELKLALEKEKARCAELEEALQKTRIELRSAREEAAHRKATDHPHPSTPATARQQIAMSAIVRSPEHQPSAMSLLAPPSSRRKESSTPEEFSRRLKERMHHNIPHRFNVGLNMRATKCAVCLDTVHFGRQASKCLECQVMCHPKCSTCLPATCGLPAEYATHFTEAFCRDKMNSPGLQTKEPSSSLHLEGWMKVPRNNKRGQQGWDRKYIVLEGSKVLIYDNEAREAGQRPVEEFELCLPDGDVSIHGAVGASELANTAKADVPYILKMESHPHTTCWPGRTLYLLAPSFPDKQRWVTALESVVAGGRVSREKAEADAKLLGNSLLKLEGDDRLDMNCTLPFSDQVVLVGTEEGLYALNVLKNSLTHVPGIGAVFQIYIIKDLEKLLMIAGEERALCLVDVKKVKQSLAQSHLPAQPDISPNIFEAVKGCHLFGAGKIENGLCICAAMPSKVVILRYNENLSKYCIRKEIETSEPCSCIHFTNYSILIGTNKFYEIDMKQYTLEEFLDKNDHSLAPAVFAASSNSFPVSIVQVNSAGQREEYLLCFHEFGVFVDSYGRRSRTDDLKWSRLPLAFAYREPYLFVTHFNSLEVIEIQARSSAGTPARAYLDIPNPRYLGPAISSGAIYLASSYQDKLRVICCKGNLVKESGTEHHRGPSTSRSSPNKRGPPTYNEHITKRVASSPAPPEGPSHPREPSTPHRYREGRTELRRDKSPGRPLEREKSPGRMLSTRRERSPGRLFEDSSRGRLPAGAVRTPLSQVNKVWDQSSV
UniProt Q8WUX2: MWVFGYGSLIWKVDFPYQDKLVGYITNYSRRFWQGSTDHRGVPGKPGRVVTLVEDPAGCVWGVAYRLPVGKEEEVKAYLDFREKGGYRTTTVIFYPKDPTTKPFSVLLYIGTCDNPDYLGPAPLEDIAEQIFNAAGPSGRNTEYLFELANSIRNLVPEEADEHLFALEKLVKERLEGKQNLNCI
UniProt P86791: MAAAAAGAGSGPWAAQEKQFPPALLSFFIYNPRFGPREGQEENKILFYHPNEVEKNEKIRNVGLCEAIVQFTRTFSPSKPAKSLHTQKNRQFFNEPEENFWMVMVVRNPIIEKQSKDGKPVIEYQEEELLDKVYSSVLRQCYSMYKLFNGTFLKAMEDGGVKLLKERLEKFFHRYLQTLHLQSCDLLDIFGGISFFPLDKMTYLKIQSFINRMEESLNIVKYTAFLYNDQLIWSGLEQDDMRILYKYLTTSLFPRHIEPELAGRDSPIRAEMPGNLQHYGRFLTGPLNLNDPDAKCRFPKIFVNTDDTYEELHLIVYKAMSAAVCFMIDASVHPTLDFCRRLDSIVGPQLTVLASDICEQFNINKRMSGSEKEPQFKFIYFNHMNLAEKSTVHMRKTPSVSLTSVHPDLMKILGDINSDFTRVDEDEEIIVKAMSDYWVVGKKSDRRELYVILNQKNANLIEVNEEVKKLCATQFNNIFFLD
UniProt Q9NX63: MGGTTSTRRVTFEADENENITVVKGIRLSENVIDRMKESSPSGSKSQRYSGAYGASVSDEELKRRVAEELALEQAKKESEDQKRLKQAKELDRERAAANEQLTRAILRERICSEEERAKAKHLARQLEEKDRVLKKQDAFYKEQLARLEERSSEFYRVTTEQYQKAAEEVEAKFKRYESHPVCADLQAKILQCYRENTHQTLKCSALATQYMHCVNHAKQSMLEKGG
UniProt Q7Z460: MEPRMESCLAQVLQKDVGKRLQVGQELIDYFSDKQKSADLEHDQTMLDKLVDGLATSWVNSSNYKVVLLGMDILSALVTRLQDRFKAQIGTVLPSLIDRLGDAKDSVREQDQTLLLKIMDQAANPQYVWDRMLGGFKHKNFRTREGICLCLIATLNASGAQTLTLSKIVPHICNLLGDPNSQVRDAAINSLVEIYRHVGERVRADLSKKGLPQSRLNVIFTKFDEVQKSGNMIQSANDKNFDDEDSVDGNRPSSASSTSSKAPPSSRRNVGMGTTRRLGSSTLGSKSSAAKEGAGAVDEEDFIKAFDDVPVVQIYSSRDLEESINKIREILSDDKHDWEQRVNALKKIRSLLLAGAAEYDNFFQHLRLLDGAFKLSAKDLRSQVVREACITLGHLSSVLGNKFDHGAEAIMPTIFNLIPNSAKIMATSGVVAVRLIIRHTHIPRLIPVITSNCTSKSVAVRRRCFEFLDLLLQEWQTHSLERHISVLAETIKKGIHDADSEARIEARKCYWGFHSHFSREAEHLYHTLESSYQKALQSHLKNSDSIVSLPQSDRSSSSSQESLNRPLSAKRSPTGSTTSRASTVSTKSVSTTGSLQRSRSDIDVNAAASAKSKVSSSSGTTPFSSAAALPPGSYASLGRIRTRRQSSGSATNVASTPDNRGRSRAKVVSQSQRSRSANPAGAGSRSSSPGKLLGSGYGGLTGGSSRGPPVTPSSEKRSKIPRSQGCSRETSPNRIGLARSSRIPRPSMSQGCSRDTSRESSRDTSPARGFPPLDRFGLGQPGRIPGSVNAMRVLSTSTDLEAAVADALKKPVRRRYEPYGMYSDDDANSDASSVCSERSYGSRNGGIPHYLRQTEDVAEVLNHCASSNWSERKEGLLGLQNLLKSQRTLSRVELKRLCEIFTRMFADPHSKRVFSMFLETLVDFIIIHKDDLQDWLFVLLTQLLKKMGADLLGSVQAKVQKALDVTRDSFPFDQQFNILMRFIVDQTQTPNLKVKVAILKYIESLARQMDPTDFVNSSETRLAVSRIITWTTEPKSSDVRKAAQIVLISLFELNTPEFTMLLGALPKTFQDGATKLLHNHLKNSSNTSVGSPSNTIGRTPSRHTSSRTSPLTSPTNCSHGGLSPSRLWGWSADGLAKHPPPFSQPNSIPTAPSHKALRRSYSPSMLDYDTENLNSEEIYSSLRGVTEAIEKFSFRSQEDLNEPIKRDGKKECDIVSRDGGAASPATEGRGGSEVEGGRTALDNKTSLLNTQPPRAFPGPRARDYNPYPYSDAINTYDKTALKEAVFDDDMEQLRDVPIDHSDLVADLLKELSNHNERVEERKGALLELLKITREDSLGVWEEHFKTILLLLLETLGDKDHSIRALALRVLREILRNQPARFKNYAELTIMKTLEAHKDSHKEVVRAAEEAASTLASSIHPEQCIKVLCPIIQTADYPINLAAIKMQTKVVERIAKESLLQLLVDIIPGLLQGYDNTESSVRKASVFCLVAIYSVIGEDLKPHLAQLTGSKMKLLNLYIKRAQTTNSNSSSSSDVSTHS
UniProt Q86WR0: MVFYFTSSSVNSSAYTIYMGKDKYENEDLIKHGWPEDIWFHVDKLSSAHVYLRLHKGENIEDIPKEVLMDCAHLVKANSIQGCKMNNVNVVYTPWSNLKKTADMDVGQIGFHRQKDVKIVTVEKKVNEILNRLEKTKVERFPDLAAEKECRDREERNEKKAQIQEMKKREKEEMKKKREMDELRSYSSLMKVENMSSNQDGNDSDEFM

Compound: Nc1nc2c(ncn2[C@@H]2O[C@H](COP(=O)(O)OP(=O)(O)OP(=O)(O)O)[C@@H](O)[C@H]2O)c(=O)[nH]1
Assay: dose-dependent thermal stabilisation call (2D-TPP, DLPTP, 10% FDR) (binary (1 = stabilised)); higher = stabilised by the compound
Settings: system: Jurkat gel-filtered lysate; concentration range 1-500 µM

Target	dose-dependent thermal stabilisation call
CNPY2 (UniProt Q9Y2B0)	inactive: 0
CD1E (UniProt P15812)	inactive: 0
CHN1 (UniProt P15882)	inactive: 0
CETN3 (UniProt O15182)	inactive: 0
CEP131 (UniProt Q9UPN4)	inactive: 0
CFDP1 (UniProt Q9UEE9)	inactive: 0
CCDC92 (UniProt Q53HC0)	active: 1
CCT4 (UniProt P50991)	inactive: 0
CDR2L (UniProt Q86X02)	inactive: 0
CLIP2 (UniProt Q9UDT6)	inactive: 0
CIAPIN1 (UniProt Q6FI81)	inactive: 0
CBFA2T3 (UniProt O75081)	inactive: 0
CCDC59 (UniProt Q9P031)	inactive: 0
COPS6 (UniProt Q7L5N1)	inactive: 0
CCDC93 (UniProt Q567U6)	active: 1
CBFA2T2 (UniProt O43439)	inactive: 0
CCT2 (UniProt P78371)	inactive: 0
CNST (UniProt Q6PJW8)	inactive: 0

As entered above.
Entry of COPS6 (UniProt Q7L5N1) under dose-dependent thermal stabilisation call: inactive: 0
Entry of CCDC92 (UniProt Q53HC0) under dose-dependent thermal stabilisation call: active: 1
Entry of CBFA2T3 (UniProt O75081) under dose-dependent thermal stabilisation call: inactive: 0

Carrying on.

Target	dose-dependent thermal stabilisation call
CNTROB (UniProt Q8N137)	inactive: 0
CIT (UniProt O14578)	inactive: 0
CHCHD2 (UniProt Q9Y6H1)	inactive: 0
CEP97 (UniProt Q8IW35)	inactive: 0
CHAC2 (UniProt Q8WUX2)	inactive: 0
CC2D1A (UniProt Q6P1N0)	active: 1
CCZ1 (UniProt P86791)	inactive: 0
CHCHD3 (UniProt Q9NX63)	inactive: 0
CDKN2AIP (UniProt Q9NXV6)	inactive: 0
CEP76 (UniProt Q8TAP6)	inactive: 0
CDK5RAP3 (UniProt Q96JB5)	inactive: 0
CENPF (UniProt P49454)	inactive: 0
CCT6A (UniProt P40227)	inactive: 0
CLASP1 (UniProt Q7Z460)	inactive: 0
COG1 (UniProt Q8WTW3)	inactive: 0
CBL (UniProt P22681)	inactive: 0
CD3EAP (UniProt O15446)	inactive: 0
CCDC25 (UniProt Q86WR0)	inactive: 0
